Test results as given in PubChem BioAssay AID1487 (National Center for Advancing Translational Sciences (NCATS), 2009).
Some of the results follow. The main result of the screen is listed elsewhere. These columns were measured beside it and carry no call. The list favours compounds with an active or inconclusive main result. Words in brackets tell the shape of the fitted curve; partial curves, single points and poor fits give uncertain potencies.

Assay: qHTS Assay for Modulators of Lamin A Splicing
Conditions: HeLa LMNA splicing GFP/RFP minigene ratio, 48 h
Outline: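 S3 HeLa cells stably expressing lamin A-EGFP splicing minigene plus DsRed2, 600 cells/well, 48 h compound exposure at 37C. Laser-scanning cytometry; analysed as GFP (500-530 nm)/RFP (575-640 nm) total intensity ratio; 0.5% DMSO vehicle.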

[1] = measured here: GFP splicing reporter channel
[2] = measured here: RFP viability control channel

Row | SMILES | AC50 [1] | AC50 [2]
1 | COc1ccc(-n2c(O)c(/C=N/Nc3nc(C)cc(C)n3)c3ccccc3c2=O)cc1OC | 25.1 µM [falling, partial curve] | 
2 | CC1Cc2cc(-c3csc(NC(=O)Cc4ccccc4)n3)ccc2N1S(C)(=O)=O (configuration not stated) | 2.51 µM [rising, full curve] | 
3 | N#Cc1cc(N)c(Nc2ccccc2)cc1C#N | 35.5 µM [rising, single point] | 35.5 µM [rising, single point]
4 | CC(C)(C)CC(C)(C)c1ccc(OCCO)cc1 | 0.141 µM [rising, full curve, poor fit] | 
5 | COCCn1c(=O)[nH]c(=O)c2cc(C(=O)c3cc(Cl)ccc3O)cnc21 | 0.0398 µM [rising, full curve, poor fit] | 0.0447 µM [rising, full curve, poor fit]
6 | Cc1ccc(C(=O)Nc2cc(Cl)ccc2Oc2ccccc2)cc1[N+](=O)[O-] |  | 0.0355 µM [rising, full curve, poor fit]
7 | CCc1ccc(NC(=O)CCCc2nc(-c3ccco3)no2)cc1 |  | 7.08 µM [falling, partial curve, poor fit]
8 | O=C(Nc1ccc2nc(SCC(=O)N3CCCC3)sc2c1)c1ccccc1F | 7.08 µM [falling, partial curve, poor fit] | 1.41 µM [falling, partial curve]
9 | O=C(Cc1cccs1)Nc1nc2c(s1)CCCC2 |  | 28.2 µM [rising, single point]
10 | Cc1cccc(C(=O)Nc2ccccc2SCC2CSc3nc4ccccc4c(=O)n32)c1 (configuration not stated) |  | 14.1 µM [rising, partial curve]
11 | Cc1ccc2oc(Nc3nc(-c4ccccc4)cc(=O)[nH]3)nc2c1 | 14.1 µM [rising, single point] | 
12 | CCOC(=O)c1cccc(N)c1 | 35.5 µM [falling, single point] | 1.12 µM [rising, full curve, poor fit]
13 | CCC(=O)Oc1ccc(NC(=O)CSCc2ccccc2)cc1 |  | 0.0794 µM [rising, full curve, poor fit]
14 | C#CCNC(=O)c1cccn1-c1ncc(C(F)(F)F)cc1Cl | 0.01 µM [falling, full curve, poor fit] | 
15 | Cc1ccc(NC(=O)CNC(=O)OCc2ccccc2)cc1C | 0.00316 µM [rising, full curve, poor fit] | 
16 | COC(=O)c1ccc(-c2ncc(-c3cccc4ccccc34)o2)cc1 | 0.0562 µM [falling, full curve, poor fit] | 
17 | COc1ccc(Cc2nnc(N/N=C/c3ccccc3O)[nH]c2=O)cc1OC |  | 6.31 µM [rising, full curve]
18 | CCn1c(SCc2ccccc2F)nc(=O)c2c(C(=O)OC)cc(C3CC3)nc21 | 0.447 µM [rising, partial curve, poor fit] | 0.398 µM [rising, full curve, poor fit]
19 | Cc1ccc2c(C)c(C(=O)Nc3c(C)n(C)n(-c4ccccc4)c3=O)oc2c1C | 3.98 µM [rising, partial curve] | 10 µM [rising, partial curve]

As entered above:
AC50 [1], CCn1c(SCc2ccccc2F)nc(=O)c2c(C(=O)OC)cc(C3CC3)nc21 is entered as 0.447 µM [rising, partial curve, poor fit]
AC50 [1], O=C(Nc1ccc2nc(SCC(=O)N3CCCC3)sc2c1)c1ccccc1F is entered as 7.08 µM [falling, partial curve, poor fit]
AC50 [2], CCC(=O)Oc1ccc(NC(=O)CSCc2ccccc2)cc1 is entered as 0.0794 µM [rising, full curve, poor fit]
AC50 [2], Cc1ccc2c(C)c(C(=O)Nc3c(C)n(C)n(-c4ccccc4)c3=O)oc2c1C is entered as 10 µM [rising, partial curve]

Later entries:

Row | SMILES | AC50 [1] | AC50 [2]
20 | O=C(NCc1ccccc1Cl)C1CCN(S(=O)(=O)N2CCCCCC2)CC1 | 35.5 µM [rising, single point] | 35.5 µM [rising, single point]
21 | Cc1nn(CC(N)=O)c(=O)c2ccccc12 |  | 14.1 µM [rising, single point]
22 | COc1ccc(-c2c(S(=O)(=O)c3ccccc3)cnn2-c2ccccc2)cc1 |  | 31.6 µM [rising, single point]
23 | Oc1cccc(C(Nc2nccs2)c2ccc3cccnc3c2O)c1 (configuration not stated) | 25.1 µM [falling, single point] | 31.6 µM [falling, single point]
24 | O=C(Nc1ccc(F)cc1)c1ccccc1F |  | 15.8 µM [rising, single point]
25 | CCOC(=O)c1cnc2c(OC)cccc2c1Nc1ccc2c(c1)OCCO2 |  | 20 µM [rising, single point]
26 | COCCn1c(SCC(=O)Nc2nnc(C)s2)nnc1-c1cc2ccccc2cc1O |  | 0.02 µM [falling, full curve, poor fit]
27 | Cc1cccc(C)c1NC(=O)C(c1ccccc1)N1CCN(C(=O)c2ccco2)CC1 (configuration not stated) |  | 0.0282 µM [falling, full curve]
28 | CCOC(=O)c1c(C)sc2c1N(C(=O)CN(CC)CC)c1cc(Cl)ccc1S2 | 35.5 µM [rising, single point] | 
29 | CCOC(=O)c1c(NC(=O)CN(CC)CC)sc2c1CCC2 |  | 6.31 µM [falling, single point]
30 | O=[N+]([O-])c1ccc(/C=N/N=C/c2ccc([N+](=O)[O-])o2)o1 | 5.62 µM [falling, partial curve] | 0.0112 µM [falling, full curve, poor fit]
31 | Cc1cccc(N(C(=O)CNC(=O)c2ccco2)C(C(=O)NC2CCCC2)c2cccnc2)c1 (configuration not stated) |  | 0.112 µM [falling, single point]
32 | COc1cc2ccnc(Cc3cccc(OC)c3OC)c2cc1OC | 0.224 µM [falling, full curve, poor fit] | 
33 | Cc1cc(C)c2nc(NC(=O)c3ccc(OCC4CCCO4)cc3)sc2c1 (configuration not stated) | 0.0224 µM [rising, full curve, poor fit] | 
34 | Cc1ccc(NC(=S)NNc2ncc(C(F)(F)F)cc2Cl)cc1 |  | 22.4 µM [rising, partial curve]
35 | C=CCn1c(CCc2ccc(OC(C)C)cc2)n[nH]c1=S | 3.98 µM [falling, full curve] | 2.82 µM [falling, full curve]
36 | O=C1CC(N2CCN(S(=O)(=O)c3cccc(C(F)(F)F)c3)CC2)C(=O)N1Cc1ccccc1 (configuration not stated) |  | 12.6 µM [rising, single point]
37 | CCCNCC(O)COc1ccccc1C(=O)CCc1ccccc1 (configuration not stated) | 0.002 µM [falling, full curve, poor fit] | 17.8 µM [rising, single point]
38 | Cc1ccc(CCNC(=O)c2ccc(CSCc3ccccc3C)o2)cc1 | 0.316 µM [rising, full curve, poor fit] | 

Row | SMILES | AC50 [1] | AC50 [2]
39 | O=Nc1c(O)n(Cc2ccc(Cl)c(Cl)c2)c2ccccc12 | 25.1 µM [falling, single point] | 35.5 µM [falling, single point]
40 | COc1ccccc1CNC(=O)c1sc2nc3n(c(=O)c2c1C)CCC3 | 7.94 µM [rising, partial curve, poor fit] | 7.94 µM [rising, partial curve, poor fit]
41 | O=C(Nc1ccccc1C(=O)N1CCCCCC1)c1ccccc1Cl |  | 0.316 µM [rising, partial curve, poor fit]
42 | COc1ccc(C(=O)Nc2nc3ccccc3[nH]2)cc1S(=O)(=O)N1CCOCC1 | 0.00316 µM [falling, full curve, poor fit] | 
43 | Cc1ccc(-c2cc3nc(-c4ccccc4)cc(N4CCC5(CC4)OCCO5)n3n2)cc1 |  | 35.5 µM [rising, single point]
44 | Fc1ccccc1COc1cccc(/C=N/n2cnnc2)c1 | 11.2 µM [rising, partial curve] | 25.1 µM [rising, single point]
45 | Cc1ccccc1-n1ncc(C(C)NC(=O)c2ccco2)c1C (configuration not stated) | 2 µM [falling, full curve, poor fit] | 12.6 µM [falling, partial curve]
46 | CCOc1cc(-c2noc(CCC(=O)Nc3cccnc3)n2)ccc1OC | 1.12 µM [rising, partial curve] | 12.6 µM [rising, partial curve]
47 | COc1ncc2nc(-c3ccc(F)cc3)c(=O)n(Cc3cccs3)c2n1 | 12.6 µM [falling, partial curve] | 22.4 µM [falling, partial curve]
48 | O=C(Nc1nc(-c2ccccn2)cs1)c1cc(Cl)ccc1[N+](=O)[O-] | 4.47 µM [rising, full curve, poor fit] | 14.1 µM [rising, partial curve, poor fit]
49 | COc1ccc(-n2cnc3cc(NS(=O)(=O)c4ccccc4)ccc32)cc1 |  | 12.6 µM [rising, partial curve, poor fit]
50 | Cn1c(NC(=O)c2ccco2)c(-c2ccccc2Cl)c(=O)c2ccccc21 |  | 31.6 µM [rising, single point]
51 | N#CCCCn1c(=O)oc2ccccc21 | 15.8 µM [falling, single point] | 
52 | COc1ccc2oc(=O)c(C(=O)N3CCN(c4ccc(F)cc4)CC3)cc2c1 | 12.6 µM [rising, single point] | 17.8 µM [rising, single point]
53 | CNc1nn(-c2cccc(Cl)c2)nc1N |  | 14.1 µM [rising, single point]
54 | CC1=C(C(=O)OCc2ccccc2)C(c2ccc(C(F)(F)F)cc2)NC(=O)N1CCCCCC(=O)O (configuration not stated) | 35.5 µM [rising, single point] | 
55 | CCCNc1nc(N2CCCC2)nc(N2CCCC2)n1 | 0.00891 µM [falling, full curve] | 0.00891 µM [falling, full curve, poor fit]
56 | Cc1cc(C(=O)NNC(=O)CCN2CCN(c3ccccc3)CC2)c2ccccc2n1 | 6.31 µM [falling, single point] | 6.31 µM [falling, partial curve]
